No constants are given. Whether binding was seen depends on the method and setting. In cells and extracts the contact can be indirect. Some results given as binding are weak or reduced against the parent protein; the word gives no strength.
Legend:
[1] = biological target: sarcoplasmic/endoplasmic reticulum Ca2+ ATPase (SERCA2), endogenous in HEK293-T cells (human (endogenous in HEK293-T)) (UniProt P16615); experiment: co-IP; lysates of HEK293-T cells, basal and after 1 h hypoxia followed by 30 min reoxygenation; 200 µg lysate precipitated with anti-SERCA2 antibody and Protein G magnetic beads, TBS with 1 mM EDTA and 1.0% Triton X-100, overnight at 4 °C; immunoblot
[2] = biological target: human SERCA2a S663E phosphomimetic mutant, AAV9 rescue in cardiac SERCA2-KD mice (human) (UniProt P16615); experiment: co-IP; lysates of the cardiac area at risk after in vivo ischemia-reperfusion of SERCA2-KD mice rescued with SERCA2 WT, S663A or S663E; precipitated with anti-SERCA2 antibody, TBS with 1 mM EDTA and 1.0% Triton X-100, 4 °C; immunoblot for PLN, quantified
[3] = biological target: human SERCA2a wild type, AAV9 rescue in cardiac SERCA2-KD mice (human) (UniProt P16615); experiment: as above
[4] = biological target: human SERCA2a S663A phosphoresistant mutant, AAV9 rescue in cardiac SERCA2-KD mice (human) (UniProt P16615); experiment: as above

Chains of the proteins cited; added tags and fusions are not shown. Lines headed by an entry give the natural chain unless they say otherwise; changes in a name come on top. A line that says so, or that is headed by a name, gives the form on record, which may keep a tag or linker.
UniProt P16615: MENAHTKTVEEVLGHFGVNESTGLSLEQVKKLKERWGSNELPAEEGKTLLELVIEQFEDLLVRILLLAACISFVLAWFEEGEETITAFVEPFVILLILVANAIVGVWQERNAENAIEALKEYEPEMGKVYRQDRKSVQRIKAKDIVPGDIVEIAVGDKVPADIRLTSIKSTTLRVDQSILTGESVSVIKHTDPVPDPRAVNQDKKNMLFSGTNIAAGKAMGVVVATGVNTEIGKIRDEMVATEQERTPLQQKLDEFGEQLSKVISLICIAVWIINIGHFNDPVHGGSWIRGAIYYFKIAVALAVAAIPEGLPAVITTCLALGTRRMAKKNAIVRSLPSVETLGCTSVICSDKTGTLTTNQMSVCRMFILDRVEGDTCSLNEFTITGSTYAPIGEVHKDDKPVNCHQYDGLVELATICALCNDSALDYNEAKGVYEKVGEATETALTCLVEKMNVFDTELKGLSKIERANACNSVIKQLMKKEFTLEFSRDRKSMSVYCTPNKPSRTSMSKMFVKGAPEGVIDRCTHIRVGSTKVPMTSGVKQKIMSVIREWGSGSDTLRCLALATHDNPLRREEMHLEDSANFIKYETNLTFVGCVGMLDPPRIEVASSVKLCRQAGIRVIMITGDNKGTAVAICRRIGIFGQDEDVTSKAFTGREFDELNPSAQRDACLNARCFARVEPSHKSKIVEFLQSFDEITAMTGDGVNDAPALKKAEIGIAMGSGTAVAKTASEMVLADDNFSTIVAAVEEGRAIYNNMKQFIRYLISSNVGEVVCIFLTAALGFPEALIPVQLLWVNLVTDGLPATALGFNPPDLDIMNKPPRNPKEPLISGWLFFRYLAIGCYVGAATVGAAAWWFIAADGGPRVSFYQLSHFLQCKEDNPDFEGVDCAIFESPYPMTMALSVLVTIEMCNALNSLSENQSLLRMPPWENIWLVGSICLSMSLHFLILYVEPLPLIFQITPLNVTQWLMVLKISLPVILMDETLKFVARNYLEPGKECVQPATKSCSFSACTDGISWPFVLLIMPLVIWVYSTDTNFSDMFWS
human SERCA2a S663E phosphomimetic mutant, AAV9 rescue in cardiac SERCA2-KD mice (P16615, form named): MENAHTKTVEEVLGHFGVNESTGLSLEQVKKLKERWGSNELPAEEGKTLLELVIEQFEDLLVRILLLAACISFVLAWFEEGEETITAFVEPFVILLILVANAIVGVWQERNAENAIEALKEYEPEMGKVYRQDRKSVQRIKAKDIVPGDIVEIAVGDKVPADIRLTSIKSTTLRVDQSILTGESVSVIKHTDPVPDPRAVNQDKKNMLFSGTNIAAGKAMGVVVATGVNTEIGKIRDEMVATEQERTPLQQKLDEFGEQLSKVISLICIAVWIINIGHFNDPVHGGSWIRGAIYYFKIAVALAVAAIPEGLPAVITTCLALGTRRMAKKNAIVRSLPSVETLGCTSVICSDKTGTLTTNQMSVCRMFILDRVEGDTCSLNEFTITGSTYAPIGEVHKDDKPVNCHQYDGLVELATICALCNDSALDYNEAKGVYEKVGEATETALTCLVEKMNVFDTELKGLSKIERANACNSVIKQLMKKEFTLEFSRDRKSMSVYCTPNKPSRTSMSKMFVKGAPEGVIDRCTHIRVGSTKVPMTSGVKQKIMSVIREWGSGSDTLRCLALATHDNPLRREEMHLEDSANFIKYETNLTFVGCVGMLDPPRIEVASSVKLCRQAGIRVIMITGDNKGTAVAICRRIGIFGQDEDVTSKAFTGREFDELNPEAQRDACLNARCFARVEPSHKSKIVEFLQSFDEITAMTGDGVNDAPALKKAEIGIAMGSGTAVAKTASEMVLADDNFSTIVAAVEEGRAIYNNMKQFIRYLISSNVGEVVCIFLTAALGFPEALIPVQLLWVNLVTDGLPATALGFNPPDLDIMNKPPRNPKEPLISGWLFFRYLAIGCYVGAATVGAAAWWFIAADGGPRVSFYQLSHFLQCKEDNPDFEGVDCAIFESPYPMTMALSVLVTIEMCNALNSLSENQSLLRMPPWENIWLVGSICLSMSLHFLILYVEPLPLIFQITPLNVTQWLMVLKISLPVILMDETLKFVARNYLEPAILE
human SERCA2a wild type, AAV9 rescue in cardiac SERCA2-KD mice (P16615, form named): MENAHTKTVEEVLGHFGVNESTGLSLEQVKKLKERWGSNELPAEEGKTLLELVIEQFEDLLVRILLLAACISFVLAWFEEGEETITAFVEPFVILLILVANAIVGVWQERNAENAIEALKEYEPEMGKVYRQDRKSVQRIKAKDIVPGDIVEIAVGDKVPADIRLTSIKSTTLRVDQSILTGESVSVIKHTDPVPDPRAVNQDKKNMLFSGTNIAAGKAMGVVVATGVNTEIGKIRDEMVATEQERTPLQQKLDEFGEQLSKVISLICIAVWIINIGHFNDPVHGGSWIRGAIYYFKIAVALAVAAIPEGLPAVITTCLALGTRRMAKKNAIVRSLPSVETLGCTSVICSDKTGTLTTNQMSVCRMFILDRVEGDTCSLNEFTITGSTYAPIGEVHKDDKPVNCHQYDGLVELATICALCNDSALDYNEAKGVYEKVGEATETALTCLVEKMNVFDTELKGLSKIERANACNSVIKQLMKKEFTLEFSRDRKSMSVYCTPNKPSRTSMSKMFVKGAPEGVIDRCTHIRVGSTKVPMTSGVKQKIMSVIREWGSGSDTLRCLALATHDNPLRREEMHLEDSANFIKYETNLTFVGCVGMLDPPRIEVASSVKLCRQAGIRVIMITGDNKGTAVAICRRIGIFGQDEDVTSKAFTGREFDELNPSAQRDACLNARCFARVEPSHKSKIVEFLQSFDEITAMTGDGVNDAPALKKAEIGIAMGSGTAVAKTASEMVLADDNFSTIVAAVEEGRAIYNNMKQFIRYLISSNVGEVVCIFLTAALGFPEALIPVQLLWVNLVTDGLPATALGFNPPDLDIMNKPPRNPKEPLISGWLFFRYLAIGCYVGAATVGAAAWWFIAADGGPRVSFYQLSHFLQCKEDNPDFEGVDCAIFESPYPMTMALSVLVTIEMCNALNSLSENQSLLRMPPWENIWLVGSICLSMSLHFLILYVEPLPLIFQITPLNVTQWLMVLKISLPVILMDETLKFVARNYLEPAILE
human SERCA2a S663A phosphoresistant mutant, AAV9 rescue in cardiac SERCA2-KD mice (P16615, form named): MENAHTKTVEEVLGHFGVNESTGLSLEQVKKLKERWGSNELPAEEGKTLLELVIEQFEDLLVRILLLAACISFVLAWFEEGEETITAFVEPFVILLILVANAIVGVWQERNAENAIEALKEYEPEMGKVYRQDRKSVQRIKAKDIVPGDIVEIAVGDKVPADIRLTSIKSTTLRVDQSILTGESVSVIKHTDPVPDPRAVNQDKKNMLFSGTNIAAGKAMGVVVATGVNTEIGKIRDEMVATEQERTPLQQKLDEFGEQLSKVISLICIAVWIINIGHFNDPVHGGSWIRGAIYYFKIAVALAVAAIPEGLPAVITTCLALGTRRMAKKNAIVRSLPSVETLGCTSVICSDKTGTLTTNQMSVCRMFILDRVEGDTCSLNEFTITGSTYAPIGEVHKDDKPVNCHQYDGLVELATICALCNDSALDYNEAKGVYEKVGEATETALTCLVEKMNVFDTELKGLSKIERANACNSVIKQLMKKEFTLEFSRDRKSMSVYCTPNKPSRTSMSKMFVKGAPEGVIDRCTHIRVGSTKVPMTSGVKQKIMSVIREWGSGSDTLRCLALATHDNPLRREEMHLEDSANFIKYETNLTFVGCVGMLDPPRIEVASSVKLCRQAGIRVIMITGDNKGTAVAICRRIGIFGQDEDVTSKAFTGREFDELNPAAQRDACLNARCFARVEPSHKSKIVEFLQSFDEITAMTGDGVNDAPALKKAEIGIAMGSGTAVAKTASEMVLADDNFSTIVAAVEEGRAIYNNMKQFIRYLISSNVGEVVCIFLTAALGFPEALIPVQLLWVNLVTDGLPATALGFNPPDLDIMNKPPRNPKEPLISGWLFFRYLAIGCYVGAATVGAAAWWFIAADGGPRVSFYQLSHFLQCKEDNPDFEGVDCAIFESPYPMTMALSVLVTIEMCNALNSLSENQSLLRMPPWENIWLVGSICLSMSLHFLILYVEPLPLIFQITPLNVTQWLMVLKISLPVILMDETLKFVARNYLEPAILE
UniProt P49841: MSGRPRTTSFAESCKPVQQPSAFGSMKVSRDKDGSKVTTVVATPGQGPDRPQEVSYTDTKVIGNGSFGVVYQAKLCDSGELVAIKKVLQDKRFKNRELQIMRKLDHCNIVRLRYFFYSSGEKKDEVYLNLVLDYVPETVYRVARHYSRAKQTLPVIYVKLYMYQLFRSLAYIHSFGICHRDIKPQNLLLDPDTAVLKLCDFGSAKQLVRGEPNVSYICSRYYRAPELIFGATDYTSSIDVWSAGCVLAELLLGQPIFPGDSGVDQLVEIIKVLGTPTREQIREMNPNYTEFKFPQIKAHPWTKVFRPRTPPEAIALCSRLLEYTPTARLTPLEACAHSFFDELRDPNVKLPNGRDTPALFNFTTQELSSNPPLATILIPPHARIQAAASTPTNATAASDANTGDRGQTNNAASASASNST

Q: For “glycogen synthase kinase 3 beta (GSK3β), endogenous in HEK293-T cells (from UniProt P49841 1-420) (enzyme)”, which binding [1] is on record?
A: binds

B1: phospholamban (PLN), endogenous in mouse heart (protein, UniProt P61014 1-52)
chain: MEKVQYLTRSAIRRASTIEMPQQARQNLQNLFINFCLILICLLLICIIVMLL
Q: Which results are given for B1?
A: binding [2]: binds; binding [3]: binds; binding [4]: binds
